# Results: the supplement of paper PMC10849652
# Amino acid sequences for entries named in this document (tags omitted). A change or cut given only in a name is not applied to a line headed by its entry.
# UniProt Q9NPB0: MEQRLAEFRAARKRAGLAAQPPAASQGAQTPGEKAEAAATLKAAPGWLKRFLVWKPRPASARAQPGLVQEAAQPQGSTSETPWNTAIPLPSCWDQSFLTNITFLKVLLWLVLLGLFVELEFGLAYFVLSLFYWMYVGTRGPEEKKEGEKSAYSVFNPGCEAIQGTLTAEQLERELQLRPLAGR
# UniProt Q9H0E3: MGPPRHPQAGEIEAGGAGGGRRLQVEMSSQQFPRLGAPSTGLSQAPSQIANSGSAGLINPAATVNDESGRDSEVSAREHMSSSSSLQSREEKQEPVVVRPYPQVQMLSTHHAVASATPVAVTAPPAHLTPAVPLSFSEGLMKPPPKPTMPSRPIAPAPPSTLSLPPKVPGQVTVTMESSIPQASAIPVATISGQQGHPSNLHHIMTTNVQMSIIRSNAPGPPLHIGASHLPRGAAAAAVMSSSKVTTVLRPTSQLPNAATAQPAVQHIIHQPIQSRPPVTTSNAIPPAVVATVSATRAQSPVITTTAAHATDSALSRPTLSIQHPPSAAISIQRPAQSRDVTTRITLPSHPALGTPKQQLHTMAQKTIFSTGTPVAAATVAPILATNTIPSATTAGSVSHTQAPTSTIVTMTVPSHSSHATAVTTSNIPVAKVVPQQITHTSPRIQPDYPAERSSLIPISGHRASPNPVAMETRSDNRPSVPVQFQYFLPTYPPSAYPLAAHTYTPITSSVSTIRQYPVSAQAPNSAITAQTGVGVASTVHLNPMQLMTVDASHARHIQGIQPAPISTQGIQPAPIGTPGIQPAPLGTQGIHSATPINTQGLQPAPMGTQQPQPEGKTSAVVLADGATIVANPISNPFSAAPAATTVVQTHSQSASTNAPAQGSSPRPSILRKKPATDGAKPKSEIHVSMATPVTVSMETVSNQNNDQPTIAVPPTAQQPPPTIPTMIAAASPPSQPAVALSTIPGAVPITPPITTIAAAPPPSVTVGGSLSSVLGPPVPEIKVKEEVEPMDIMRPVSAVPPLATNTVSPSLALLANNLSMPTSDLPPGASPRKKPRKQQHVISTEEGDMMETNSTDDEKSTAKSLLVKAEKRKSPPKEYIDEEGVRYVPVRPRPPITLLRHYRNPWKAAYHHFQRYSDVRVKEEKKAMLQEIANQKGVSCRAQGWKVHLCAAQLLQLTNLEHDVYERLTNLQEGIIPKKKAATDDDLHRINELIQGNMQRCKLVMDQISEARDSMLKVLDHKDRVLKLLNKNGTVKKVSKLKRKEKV
# UniProt Q92503: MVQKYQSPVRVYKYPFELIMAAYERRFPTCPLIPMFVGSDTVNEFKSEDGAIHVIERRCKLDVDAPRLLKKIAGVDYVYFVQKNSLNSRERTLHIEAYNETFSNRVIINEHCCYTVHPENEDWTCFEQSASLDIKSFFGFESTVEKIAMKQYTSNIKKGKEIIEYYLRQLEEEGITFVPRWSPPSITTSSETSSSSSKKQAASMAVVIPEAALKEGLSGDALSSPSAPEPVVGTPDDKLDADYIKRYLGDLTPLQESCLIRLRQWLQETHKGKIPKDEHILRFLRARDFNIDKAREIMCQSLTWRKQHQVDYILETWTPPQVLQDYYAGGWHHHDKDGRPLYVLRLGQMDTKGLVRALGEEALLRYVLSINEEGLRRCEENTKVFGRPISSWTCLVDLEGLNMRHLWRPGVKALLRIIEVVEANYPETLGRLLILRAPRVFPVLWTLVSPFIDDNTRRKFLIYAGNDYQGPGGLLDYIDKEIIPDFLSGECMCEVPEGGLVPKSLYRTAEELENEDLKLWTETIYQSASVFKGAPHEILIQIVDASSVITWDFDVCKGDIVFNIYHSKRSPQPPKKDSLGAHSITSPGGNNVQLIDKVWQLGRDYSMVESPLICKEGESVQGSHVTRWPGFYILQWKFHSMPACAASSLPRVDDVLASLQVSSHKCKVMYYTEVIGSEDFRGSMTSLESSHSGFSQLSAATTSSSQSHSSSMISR
# UniProt O43818: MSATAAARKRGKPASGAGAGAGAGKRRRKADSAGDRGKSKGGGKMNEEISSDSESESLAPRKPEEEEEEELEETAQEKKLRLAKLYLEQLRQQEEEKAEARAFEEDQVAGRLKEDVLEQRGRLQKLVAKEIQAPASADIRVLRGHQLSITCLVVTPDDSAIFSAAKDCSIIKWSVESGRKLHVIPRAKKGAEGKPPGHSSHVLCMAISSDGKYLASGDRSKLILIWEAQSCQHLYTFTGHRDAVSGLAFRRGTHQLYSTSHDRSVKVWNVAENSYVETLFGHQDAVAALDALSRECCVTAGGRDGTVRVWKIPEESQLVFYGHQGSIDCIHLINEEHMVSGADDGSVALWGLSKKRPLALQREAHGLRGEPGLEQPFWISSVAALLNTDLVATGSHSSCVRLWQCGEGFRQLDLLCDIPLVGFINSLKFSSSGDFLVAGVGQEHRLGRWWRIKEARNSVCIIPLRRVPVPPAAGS
# UniProt O75446: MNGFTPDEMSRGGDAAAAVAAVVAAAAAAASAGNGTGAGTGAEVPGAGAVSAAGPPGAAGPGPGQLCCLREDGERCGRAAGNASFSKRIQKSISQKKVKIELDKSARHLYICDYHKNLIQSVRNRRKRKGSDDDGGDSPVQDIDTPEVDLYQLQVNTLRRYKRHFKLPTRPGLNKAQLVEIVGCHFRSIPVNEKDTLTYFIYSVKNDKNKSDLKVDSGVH
# UniProt P60903, whole entry, looked up: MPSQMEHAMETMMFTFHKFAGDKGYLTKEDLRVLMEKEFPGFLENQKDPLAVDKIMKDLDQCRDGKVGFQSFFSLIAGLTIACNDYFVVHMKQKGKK
# UniProt Q5VUM1: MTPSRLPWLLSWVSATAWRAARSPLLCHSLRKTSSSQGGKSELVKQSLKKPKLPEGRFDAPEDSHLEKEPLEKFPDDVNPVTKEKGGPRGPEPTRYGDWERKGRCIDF
# UniProt Q14160: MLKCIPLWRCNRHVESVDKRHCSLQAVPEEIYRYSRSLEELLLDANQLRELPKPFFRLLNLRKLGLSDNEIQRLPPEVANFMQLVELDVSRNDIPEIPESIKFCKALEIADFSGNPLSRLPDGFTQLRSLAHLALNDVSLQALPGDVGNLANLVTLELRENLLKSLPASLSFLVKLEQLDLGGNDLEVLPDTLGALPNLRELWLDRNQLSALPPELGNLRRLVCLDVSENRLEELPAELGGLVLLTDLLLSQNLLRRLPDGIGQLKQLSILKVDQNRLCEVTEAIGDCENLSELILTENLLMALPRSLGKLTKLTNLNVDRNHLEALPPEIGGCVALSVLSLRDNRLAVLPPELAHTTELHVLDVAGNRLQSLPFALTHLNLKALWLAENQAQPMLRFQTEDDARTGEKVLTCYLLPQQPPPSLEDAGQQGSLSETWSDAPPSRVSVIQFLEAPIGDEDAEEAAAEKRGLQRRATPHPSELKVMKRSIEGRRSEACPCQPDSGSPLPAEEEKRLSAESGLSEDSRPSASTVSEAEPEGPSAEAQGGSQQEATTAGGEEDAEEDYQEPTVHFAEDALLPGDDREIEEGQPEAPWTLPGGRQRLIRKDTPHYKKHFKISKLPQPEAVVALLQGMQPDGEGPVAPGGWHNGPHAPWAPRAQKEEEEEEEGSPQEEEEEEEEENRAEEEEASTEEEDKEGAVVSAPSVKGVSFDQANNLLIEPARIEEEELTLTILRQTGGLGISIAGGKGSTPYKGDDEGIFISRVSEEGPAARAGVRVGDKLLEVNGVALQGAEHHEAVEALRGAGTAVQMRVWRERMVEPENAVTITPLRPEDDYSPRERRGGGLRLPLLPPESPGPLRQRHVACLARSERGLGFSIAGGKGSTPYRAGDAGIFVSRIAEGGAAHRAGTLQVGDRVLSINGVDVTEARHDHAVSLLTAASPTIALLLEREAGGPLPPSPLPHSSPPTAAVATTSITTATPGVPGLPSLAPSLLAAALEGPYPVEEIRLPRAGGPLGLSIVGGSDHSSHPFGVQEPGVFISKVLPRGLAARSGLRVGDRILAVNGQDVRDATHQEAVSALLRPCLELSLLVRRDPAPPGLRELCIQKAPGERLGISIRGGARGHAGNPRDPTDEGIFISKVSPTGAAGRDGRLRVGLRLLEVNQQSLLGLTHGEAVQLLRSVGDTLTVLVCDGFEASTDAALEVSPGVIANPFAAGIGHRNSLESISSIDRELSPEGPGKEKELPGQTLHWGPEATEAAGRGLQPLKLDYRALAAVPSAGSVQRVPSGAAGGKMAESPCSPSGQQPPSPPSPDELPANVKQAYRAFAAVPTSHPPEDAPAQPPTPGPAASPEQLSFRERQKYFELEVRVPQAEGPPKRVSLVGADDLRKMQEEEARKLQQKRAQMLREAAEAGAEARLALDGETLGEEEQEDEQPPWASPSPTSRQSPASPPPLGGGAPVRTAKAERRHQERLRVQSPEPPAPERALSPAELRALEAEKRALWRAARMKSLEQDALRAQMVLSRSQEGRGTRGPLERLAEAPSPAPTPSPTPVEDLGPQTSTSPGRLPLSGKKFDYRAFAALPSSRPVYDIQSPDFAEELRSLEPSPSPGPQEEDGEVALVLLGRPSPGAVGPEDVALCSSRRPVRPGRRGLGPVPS
# UniProt Q5PRF9: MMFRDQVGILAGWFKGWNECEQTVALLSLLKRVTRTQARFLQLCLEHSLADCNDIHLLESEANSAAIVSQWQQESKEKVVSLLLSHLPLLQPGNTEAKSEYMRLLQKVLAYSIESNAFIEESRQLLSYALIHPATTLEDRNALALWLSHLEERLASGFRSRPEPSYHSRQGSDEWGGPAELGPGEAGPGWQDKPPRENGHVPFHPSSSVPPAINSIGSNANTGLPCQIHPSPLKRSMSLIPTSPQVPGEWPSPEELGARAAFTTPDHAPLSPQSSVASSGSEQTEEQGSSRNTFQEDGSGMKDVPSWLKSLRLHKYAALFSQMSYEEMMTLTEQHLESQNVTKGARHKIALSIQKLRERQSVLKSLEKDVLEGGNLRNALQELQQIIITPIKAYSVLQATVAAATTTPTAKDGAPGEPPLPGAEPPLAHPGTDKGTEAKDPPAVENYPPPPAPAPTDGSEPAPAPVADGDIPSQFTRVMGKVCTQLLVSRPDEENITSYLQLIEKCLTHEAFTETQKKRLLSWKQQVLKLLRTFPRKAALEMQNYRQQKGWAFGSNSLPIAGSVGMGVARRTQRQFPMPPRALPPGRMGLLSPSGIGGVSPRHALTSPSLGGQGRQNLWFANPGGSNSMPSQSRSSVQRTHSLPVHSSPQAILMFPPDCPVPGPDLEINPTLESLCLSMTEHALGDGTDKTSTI
# UniProt Q9NQC3: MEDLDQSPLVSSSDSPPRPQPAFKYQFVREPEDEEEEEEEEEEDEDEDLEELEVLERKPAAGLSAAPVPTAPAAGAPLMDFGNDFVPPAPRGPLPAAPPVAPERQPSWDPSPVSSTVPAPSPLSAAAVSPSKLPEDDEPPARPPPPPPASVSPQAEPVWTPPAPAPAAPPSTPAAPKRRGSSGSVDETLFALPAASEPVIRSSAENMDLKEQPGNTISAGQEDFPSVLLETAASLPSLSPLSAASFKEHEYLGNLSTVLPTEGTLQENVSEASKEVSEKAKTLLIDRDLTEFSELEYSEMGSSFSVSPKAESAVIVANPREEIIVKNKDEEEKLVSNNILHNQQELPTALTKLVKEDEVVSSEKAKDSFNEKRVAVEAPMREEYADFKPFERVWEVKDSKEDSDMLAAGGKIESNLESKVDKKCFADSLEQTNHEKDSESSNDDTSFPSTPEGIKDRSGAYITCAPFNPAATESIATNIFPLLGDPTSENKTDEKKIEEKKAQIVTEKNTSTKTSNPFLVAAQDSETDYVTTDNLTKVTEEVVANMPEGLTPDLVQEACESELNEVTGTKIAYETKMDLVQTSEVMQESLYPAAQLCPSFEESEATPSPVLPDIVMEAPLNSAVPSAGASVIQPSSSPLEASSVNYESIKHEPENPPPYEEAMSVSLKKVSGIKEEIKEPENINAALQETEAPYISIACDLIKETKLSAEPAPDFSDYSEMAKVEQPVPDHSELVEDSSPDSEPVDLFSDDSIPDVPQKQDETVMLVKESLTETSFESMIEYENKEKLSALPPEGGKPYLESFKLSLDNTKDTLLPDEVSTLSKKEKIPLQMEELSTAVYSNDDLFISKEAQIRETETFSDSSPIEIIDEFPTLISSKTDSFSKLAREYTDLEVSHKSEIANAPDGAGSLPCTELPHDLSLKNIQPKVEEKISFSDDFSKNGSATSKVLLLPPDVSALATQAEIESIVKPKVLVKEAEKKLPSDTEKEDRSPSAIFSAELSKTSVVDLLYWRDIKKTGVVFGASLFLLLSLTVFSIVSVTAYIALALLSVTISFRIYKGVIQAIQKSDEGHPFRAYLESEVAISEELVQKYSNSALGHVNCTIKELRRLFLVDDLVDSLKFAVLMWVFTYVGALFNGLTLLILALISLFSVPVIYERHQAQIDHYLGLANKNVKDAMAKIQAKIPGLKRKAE
# The list shows a part of the results.
# Compound: c1ccc([C@@H]2C[C@H]2NC2CCNCC2)cc1
# Assay: log2 fold change, soluble protein after heating vs DMSO (PISA); higher = thermal stabilisation; K562 cells, 10 uM, 30 min; active = over 0.2 and 3.5 SD of the protein, either way, in both replicates (recomputed)
# In short: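 K562 cells at 2×10^6 cells/mL were treated for 30 min with 10 μM compound, and aliquots were heated for 3 min over 48°C-58°C before pooling. Extraction used PBS with 0.5% NP-40 at 4°C, and soluble protein was the supernatant after 21,000xg for 90 min, measured by TMTpro 16plex LC-MS/MS with channel sums equalised. Thermal stability values, relative to control samples and from duplicates, are log2 fold changes.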
row,Target,log2 fold change
1,SAYSD1 (UniProt Q9NPB0),inactive: -0.095
2,S100A6 (UniProt P06703),inactive: 0
3,SAP130 isoform 3 (UniProt Q9H0E3),inactive: -0.168
4,SEC14L1 isoform 2 (UniProt Q92503),inactive: 0.028
5,RRP9 (UniProt O43818),inactive: 0.1
6,SAP30 (UniProt O75446),inactive: -0.032
7,"SDHB, A0A087WXX8",inactive: 0.093
8,"SDHB, A0A087WWT1",inactive: 0.108
9,SBDS (UniProt Q9Y3A5),inactive: -0.041
10,SCAI isoform 2 (UniProt Q8N9R8),inactive: 0.098
11,RUFY3 isoform 3 (UniProt Q7L099),inactive: 0.029
12,RTL10 (UniProt Q7L3V2),inactive: 0.031
13,S100A10 (UniProt P60903),inactive: -0.01
14,SDHAF4 (UniProt Q5VUM1),inactive: 0.073
15,SCRIB isoform 3 (UniProt Q14160),inactive: -0.446
16,SEC24C (UniProt P53992),inactive: -0.023
17,SEC22A (UniProt Q96IW7),inactive: 0.002
18,SDC3 (UniProt O75056),inactive: 0.052
19,SAMD4B (UniProt Q5PRF9),inactive: 0.058
20,SDAD1 (UniProt Q9NVU7),inactive: -0.015
21,SAE1 (UniProt M0R286),inactive: 0.245
22,RTN4 isoform 5 (UniProt Q9NQC3),inactive: 0.117

# Copied from the list:
# Value of SDC3 (UniProt O75056) under log2 fold change: inactive: 0.052
# Value of SEC24C (UniProt P53992) under log2 fold change: inactive: -0.023
